# Source: the supplement of paper PMC12823440, “Inhibitors supercharge kinase turnover through native proteolytic circuits” (Nature, 2025)
# By UniProt entry, the sequences of proteins in these tests, tags left out. Where a name states a change or a piece, a line headed by the entry shows the natural chain unless it says otherwise.
# UniProt Q15118, whole entry, looked up: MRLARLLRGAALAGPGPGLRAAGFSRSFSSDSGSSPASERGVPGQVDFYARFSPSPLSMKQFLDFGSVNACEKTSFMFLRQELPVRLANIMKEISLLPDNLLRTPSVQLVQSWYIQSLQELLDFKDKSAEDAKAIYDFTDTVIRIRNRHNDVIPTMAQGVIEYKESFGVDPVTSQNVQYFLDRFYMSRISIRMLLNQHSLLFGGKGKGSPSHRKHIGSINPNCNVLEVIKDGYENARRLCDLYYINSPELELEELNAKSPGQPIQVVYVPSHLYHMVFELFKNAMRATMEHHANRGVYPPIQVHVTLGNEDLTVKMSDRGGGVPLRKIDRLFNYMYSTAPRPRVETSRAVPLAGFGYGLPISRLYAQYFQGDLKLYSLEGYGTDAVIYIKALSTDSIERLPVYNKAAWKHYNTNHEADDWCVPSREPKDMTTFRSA
# UniProt O15530: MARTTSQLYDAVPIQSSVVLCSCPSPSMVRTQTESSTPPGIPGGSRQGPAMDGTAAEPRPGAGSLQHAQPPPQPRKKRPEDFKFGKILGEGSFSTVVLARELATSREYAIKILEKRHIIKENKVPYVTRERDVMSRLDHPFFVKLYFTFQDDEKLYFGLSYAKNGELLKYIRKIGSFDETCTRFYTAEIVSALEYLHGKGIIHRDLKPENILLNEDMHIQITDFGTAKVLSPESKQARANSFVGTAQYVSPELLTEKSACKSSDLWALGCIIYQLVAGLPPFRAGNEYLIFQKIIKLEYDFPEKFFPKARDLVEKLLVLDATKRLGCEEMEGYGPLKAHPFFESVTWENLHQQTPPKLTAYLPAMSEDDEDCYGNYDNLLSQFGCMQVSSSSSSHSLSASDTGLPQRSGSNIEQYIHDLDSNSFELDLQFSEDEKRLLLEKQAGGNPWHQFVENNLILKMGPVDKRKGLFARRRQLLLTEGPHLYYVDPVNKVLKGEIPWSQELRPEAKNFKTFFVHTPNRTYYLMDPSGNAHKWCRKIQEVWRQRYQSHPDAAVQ
# Counter-ions that a name gives are not always drawn. Some of the results follow. The calls rarely recur for the same compound in another form.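 Kinases, fused to nanoluciferase, were expressed in K562 cells; luminescence was measured every 4 h from 2 to 18 h as percent of control (DMSO = 100%, positive control = 0%). A time point is decreased if signal falls significantly (2 sigma). Hits were called by the authors by a rule that is not shown; the count of time points alone does not decide it.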
# Molecular target: PDK1 (UniProt Q15118)
# Assay: number of time points (of 5) at which kinase-Nluc abundance scored as decreased, DMSO-normalised (count); higher = more persistent destabilization
# Conditions: K562; 2-18 h
row,SMILES,number of time points
1,Nc1c(C(=O)NCc2ccc(C(=O)NCCCC3CCCCC3)cc2)cnn1-c1ccccc1 (2.5 µM),0
2,Cc1ccc(C(=O)Nc2sc(Nc3ccccc3)nc2C(N)=O)cc1 (10 µM),0
3,COc1cc(N(C)CCN(C)C)c(N)cc1Nc1nccc(-c2cn(C)c3ccccc23)n1 [Mutated EGFR-IN-1] (10 µM),0
4,CCN(CC)c1cc2oc(=O)c(-c3nc4ccccc4o3)cc2cc1C (2.5 µM),0
5,Cn1cc(-c2cnc3cnn(S(=O)(=O)c4cnc5ccc(-c6cnn(C)c6)cn45)c3c2)cn1 [Glumetinib] (10 µM),0
6,Cc1ccc(NC(=O)c2ccnc(C(F)(F)F)c2)cc1-c1cc(OCCO)nc(N2CCOCC2)c1 (10 µM),0
7,C=CC(=O)Nc1cccc(-c2cccc3cnc(Nc4ccc(N5CCN(CCO)CC5)c(F)c4F)nc23)c1 [Olafertinib] (2.5 µM),0
8,CC(C)(C[C@H](N)C(=O)O)C(F)F [NV-5138 (hydrochloride)] (10 µM),0
9,Cc1cc(C)nc(NS(=O)(=O)c2ccc(NC(=S)NC(=O)COc3ccc(Br)cc3Cl)cc2)n1 (2.5 µM),0
10,CC[C@@](C)(Nc1ccnc(-c2c[nH]c3ncccc23)n1)C(=O)NCC(F)(F)F [Decernotinib] (10 µM),0
11,COc1cc2ncnc(-n3nc(-c4ccccn4)nc3N)c2cc1OC (10 µM),0
12,O=C1/C(=C\c2ccc(Cl)cc2)C=C(c2ccccc2)N1c1ccc(O)cc1 (2.5 µM),0
13,Oc1ccc(/C=C/c2cc(O)cc(O)c2)cc1 [Resveratrol] (10 µM),0

# Molecular target: PDPK1 (UniProt O15530)
# Assay: as above
# Conditions: K562; 2-18 h
row,SMILES,number of time points
1,CN1C(=O)[C@@H](NC(=O)c2n[nH]c(Cc3ccccc3)n2)COc2ccccc21 (10 µM),0
2,O=C1NC(=Nc2c(Cl)cccc2Cl)S/C1=C\c1ccc2nccnc2c1 (2.5 µM),1
3,Cc1cccc(-c2[nH]c(C(C)(C)C)nc2-c2ccc3nccnc3c2)n1 (10 µM),0
4,O=C(Nc1cccc(C(F)(F)F)c1)c1cccc2cc(Oc3cc(CO)ncn3)ccc12 (10 µM),0
5,CNc1cc(Nc2cccn(-c3ccccn3)c2=O)nn2c(C(=O)N[C@@H]3C[C@@H]3F)cnc12 (2.5 µM),0
6,Cc1ccn2c(C(=O)C(=O)c3ccccc3)c(-c3ccccc3)nc2c1 (10 µM),0
7,COc1cc(N2CCOCC2)ccc1Nc1ncc(Cl)c(Nc2ccccc2NS(C)(=O)=O)n1 (2.5 µM),0
8,O=C(NC1CCOCC1)c1ccc(-c2cc(-c3c[nH]nc3-c3ccccn3)ccn2)cc1 (10 µM),0
9,O=C1NC(=O)/C(=C/c2ccc3nccc(-c4ccncc4)c3c2)S1 (10 µM),0
10,Cc1ncc(NC(=O)NC2c3ccccc3-c3ccccc32)c(-c2ccccc2)n1 (10 µM),0
11,CC(C)C[C@@H](C(=O)Nc1ccn(C[C@@H](O)CO)n1)N1CC(Oc2ccccc2Cl)=CC1=O [Dorzagliatin] (10 µM),0
12,O=C1O[C@H]([C@@H](O)CO)C(O)=C1OP(=O)(O)O [2-Phospho-L-ascorbic acid (trisodium)] (10 µM),0
13,C[C@@H]1CC(=O)c2c(ccc3c2C(=O)c2cccc(O)c2C3=O)C1 [Ochromycinone] (10 µM),0
14,Cc1c(-c2ccc(C(N)=O)c3[nH]c4cc(C(C)(C)O)ccc4c23)cccc1-n1cnc2ccccc2c1=O (2.5 µM),0
15,CC(C)(C)n1nc(Cc2ccccc2O)c2c(N)ncnc21 (10 µM),0
16,C=CC(=O)N1C(=O)CC(c2ccc(F)cc2)Sc2ccccc21 (stereo not drawn) [GSK-3β inhibitor 3] (10 µM),0
17,CCc1ccc(OCC(=O)Nc2ccc(F)c([N+](=O)[O-])c2)cc1 (10 µM),0
18,CN(C)c1nc2c(Br)c(Br)c(Br)c(Br)c2[nH]1 (10 µM),0
19,Nc1ncnc2c1c(-c1ccc(Oc3ccccc3)cc1)nn2C1CCN(CCOCCOCCOc2ccc3c(c2)CN(C2CCC(=O)NC2=O)C3=O)CC1 (configuration not stated) (2.5 µM),0
20,Cc1cnc(NC2CCOCC2)nc1-n1cnc(C(=O)N[C@H](CN)c2cc(F)cc(Cl)c2)c1 (10 µM),0

row,SMILES,number of time points
1,FC(F)(F)c1ccc(/C=C/c2nc(COc3ccc(CCCCn4ccnn4)cc3)co2)cc1 [Mubritinib] (10 µM),1
2,Cc1cc2sc(NC(=O)Cc3ccccc3)nc2cc1Cl (10 µM),0
3,O=C(CNc1cccc(Cl)c1)NC1CCCN(c2ncnc3[nH]ccc23)C1 (configuration not stated) (10 µM),0
4,Oc1ccc(/C=C/c2cc(O)cc(F)c2)cc1 [Resveratrol analog 1] (10 µM),0
5,CC/C(=N\NC(=O)c1ccnc(NCCCN2CCOCC2)c1)c1ccc(Cl)cc1O (2.5 µM),0
6,O[C@@H]1CO[C@H]2[C@@H]1OC[C@H]2Oc1nc2nc(-c3ccc(-c4ccccc4)cc3)c(Cl)cc2[nH]1 (10 µM),0
7,Nc1c(C(=O)NCc2ccc(C(=O)NCCCC3CCCCC3)cc2)cnn1-c1ccccc1 (2.5 µM),0
8,Cc1ccc(C(=O)Nc2sc(Nc3ccccc3)nc2C(N)=O)cc1 (10 µM),0
9,COc1cc(N(C)CCN(C)C)c(N)cc1Nc1nccc(-c2cn(C)c3ccccc23)n1 [Mutated EGFR-IN-1] (10 µM),0
10,CCN(CC)c1cc2oc(=O)c(-c3nc4ccccc4o3)cc2cc1C (2.5 µM),0
11,Cn1cc(-c2cnc3cnn(S(=O)(=O)c4cnc5ccc(-c6cnn(C)c6)cn45)c3c2)cn1 [Glumetinib] (10 µM),0
12,Cc1ccc(NC(=O)c2ccnc(C(F)(F)F)c2)cc1-c1cc(OCCO)nc(N2CCOCC2)c1 (10 µM),0
13,C=CC(=O)Nc1cccc(-c2cccc3cnc(Nc4ccc(N5CCN(CCO)CC5)c(F)c4F)nc23)c1 [Olafertinib] (2.5 µM),0
14,CC(C)(C[C@H](N)C(=O)O)C(F)F [NV-5138 (hydrochloride)] (10 µM),0
15,Cc1cc(C)nc(NS(=O)(=O)c2ccc(NC(=S)NC(=O)COc3ccc(Br)cc3Cl)cc2)n1 (2.5 µM),0
16,CC[C@@](C)(Nc1ccnc(-c2c[nH]c3ncccc23)n1)C(=O)NCC(F)(F)F [Decernotinib] (10 µM),0
17,COc1cc2ncnc(-n3nc(-c4ccccn4)nc3N)c2cc1OC (10 µM),0
18,O=C1/C(=C\c2ccc(Cl)cc2)C=C(c2ccccc2)N1c1ccc(O)cc1 (2.5 µM),0
19,Oc1ccc(/C=C/c2cc(O)cc(O)c2)cc1 [Resveratrol] (10 µM),0
